Measurements taken from patent US20250144209A1 (Alector, published 2025).
These are yes or no findings as the source states them, for the method shown. Some binding calls cover weakened binding; strength is not graded here.

Chains of the proteins cited; added tags and fusions are not shown. Lines headed by an entry give the natural chain unless they say otherwise; changes in a name come on top.
UniProt P78324: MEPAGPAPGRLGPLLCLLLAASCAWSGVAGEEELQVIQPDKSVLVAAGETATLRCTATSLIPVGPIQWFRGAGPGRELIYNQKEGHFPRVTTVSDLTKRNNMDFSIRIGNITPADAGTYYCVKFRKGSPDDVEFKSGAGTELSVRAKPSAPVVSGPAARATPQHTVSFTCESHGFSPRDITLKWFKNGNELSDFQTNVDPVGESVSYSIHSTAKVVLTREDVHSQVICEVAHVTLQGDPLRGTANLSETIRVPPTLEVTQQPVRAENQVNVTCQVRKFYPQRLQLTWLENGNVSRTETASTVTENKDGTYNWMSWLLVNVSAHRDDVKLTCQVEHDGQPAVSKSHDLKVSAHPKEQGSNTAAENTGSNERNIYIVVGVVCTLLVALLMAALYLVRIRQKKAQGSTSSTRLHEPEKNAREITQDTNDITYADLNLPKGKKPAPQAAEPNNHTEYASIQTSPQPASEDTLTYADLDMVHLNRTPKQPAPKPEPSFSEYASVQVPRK

Legend:
[1] = biological target: T1, human SIRPA expressed on cells (human, UniProt P78324 31-504); assay: flow cytometry on CHO-huSIRPA cells
[2] = biological target: T1, human SIRPA expressed on cells; assay: cell-based binding assay (FIG. 15B)
[3] = biological target: T1, human SIRPA expressed on cells; assay: flow cytometry on primary human macrophages
[4] = biological target: T1, human SIRPA expressed on cells; assay: FACS of blood and spleen cells of dosed huSIRPA-tg mice
[5] = biological target: T1, human SIRPA expressed on cells; assay: FACS of peripheral blood cells of huSIRPA-tg mice dosed with 10 mg/kg 3F9
[6] = biological target: human SIRPA-DAP12 chimera expressed on BWZ/NFAT-luciferase reporter cells (human) (UniProt O43914); assay: flow cytometry on BWZ-Human SIRPA cells, titrated antibody detected with anti-mouse IgG APC (Relative MFI)

Measured: binding

B1: 3F9 (antibody, IgG1, V domains shown)
VH: EVKLVESGGGLVKPGGSLKLSCAASGFTFSSYAMSWVRQTPEKRLEWVATISDYGGSYTYYPDSVKGRFTISRDNAKYTLYLQMSSLRSEDTALYYCARPPYDDYYGGFAYWGQGTLVTVSA
VL: DIVLTQSPASLAVSLGQRATISCRASKSVSSSGYSYMHWYQQKPGQPPKLLIYLASNLESGVPARFSGSGSGTDFTLNIHPVEEEDAATYYCQHNRELPCTFGGGTKLEIK
notes: also called anti-SIRPA antibody 3F9; glycosylated 3F9
binds: all assays above

B2: 9C2 (antibody, IgG1, V domains shown)
VH: EFQLQQSGAELVKPGASVKISCKASGYSLTGYNMNWVKQSRGKSLEWIGNINPHYGSSTYNQNFKDKATLTVDKSSSAAYMQFNSLTSEDSAVYYCAREGYDGVFDYWGQGTTLTVSS
VL: QIVLSQSPAILSASPGEKVTMTCRASSSVSYMHWYQQKPGSSPKPWIYVTSNLASGVPTRFSGSGSGTSYSLTISRVEAEDAATYYCQQWSSNPRTFGGGTKLEIK
notes: also called anti-SIRPA antibody 9C2; 9C2-DyLight 650
binds: [1] | [3]
